Laboratory results from publication PMC10829383.
Construct, isoform or probe ends are uncertain for at least one entry. Where cells or extracts were used, other partners may take part.

Chains of the proteins cited; added tags and fusions are not shown.
UniProt P03372, whole entry: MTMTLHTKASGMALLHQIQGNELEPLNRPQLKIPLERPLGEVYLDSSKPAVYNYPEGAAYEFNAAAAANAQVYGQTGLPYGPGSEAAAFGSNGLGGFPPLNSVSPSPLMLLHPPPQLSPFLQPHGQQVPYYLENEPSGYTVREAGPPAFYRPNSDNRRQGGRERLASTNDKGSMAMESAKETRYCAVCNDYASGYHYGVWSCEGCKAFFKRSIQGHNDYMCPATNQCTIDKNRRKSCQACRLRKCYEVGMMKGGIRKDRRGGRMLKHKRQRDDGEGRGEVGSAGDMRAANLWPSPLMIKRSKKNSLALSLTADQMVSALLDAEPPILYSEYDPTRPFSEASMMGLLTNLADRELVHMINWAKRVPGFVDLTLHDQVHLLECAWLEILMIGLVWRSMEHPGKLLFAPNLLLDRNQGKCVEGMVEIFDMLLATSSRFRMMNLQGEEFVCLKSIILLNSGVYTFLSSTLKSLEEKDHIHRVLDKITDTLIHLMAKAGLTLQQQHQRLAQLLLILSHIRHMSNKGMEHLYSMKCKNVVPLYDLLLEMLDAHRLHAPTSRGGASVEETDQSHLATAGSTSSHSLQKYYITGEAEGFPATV

Target: ERα (UniProt P03372)
Experiment: EMSA supershift
Conditions: anti-ERα antibody, nuclear extract; EMSA supershift: 4 µg nuclear extract and 1 µg anti-ERα preincubated in binding buffer 20 min at ambient temperature; buffer composition, salt and pH not given; protein in an extract; label: biotin

GACCGGGCCCAGTGACCCGCGGGC (double strand) [lncRNA NCALD promoter ERα site probe]
binding result: binds
